At least one compound was matched to its structure with a doubt left.
Test system: E. coli-GFP
Experiment: E. coli-GFP peritoneal infection and response to antibiotics, whole-body imaging
Format: in vivo

Compound: NC[C@H]1O[C@H](O[C@H]2[C@H](O)[C@@H](O[C@H]3O[C@H](CO)[C@@H](O)[C@H](N)[C@H]3O)[C@H](N)C[C@@H]2N)[C@H](O)[C@@H](O)[C@@H]1O [Kanamycin]
- bacterial population by whole-body imaging (mice i.p. infected with 10^9-10^10 E. coli-GFP, 2 mg Kanamycin in 100 μl following inoculation, over the next six hours): marked reduction
- survival of the animal (mouse, six hours after i.p. injection of 10^9 E. coli-GFP, untreated mouse died at six hours): survived

— patent US20030031628A1, “Imaging infection using fluorescent protein as a marker” (priority 2001, published 2003)
